Experimental data: paper PMC9537338
Results are given in words; binding and its absence hold for the method and conditions named. Binding seen in cells or lysates may run through a third protein. Some binding calls cover weakened binding; strength is not graded here.

The chains behind the UniProt entries cited, without tags or fusion partners.
UniProt Q13485: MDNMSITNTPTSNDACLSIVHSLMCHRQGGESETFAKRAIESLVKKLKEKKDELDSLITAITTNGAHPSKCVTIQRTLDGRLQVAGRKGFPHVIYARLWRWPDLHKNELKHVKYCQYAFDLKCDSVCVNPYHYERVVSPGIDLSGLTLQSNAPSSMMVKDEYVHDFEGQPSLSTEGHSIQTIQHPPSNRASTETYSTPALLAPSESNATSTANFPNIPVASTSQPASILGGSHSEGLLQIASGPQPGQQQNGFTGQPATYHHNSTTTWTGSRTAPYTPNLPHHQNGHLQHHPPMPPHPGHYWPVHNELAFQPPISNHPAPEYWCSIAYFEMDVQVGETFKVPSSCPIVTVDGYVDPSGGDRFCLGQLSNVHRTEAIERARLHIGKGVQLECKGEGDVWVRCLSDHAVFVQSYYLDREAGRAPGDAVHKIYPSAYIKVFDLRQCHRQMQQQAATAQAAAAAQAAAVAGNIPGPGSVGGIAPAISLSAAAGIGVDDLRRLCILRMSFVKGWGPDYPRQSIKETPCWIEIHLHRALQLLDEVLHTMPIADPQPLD
UniProt Q15797: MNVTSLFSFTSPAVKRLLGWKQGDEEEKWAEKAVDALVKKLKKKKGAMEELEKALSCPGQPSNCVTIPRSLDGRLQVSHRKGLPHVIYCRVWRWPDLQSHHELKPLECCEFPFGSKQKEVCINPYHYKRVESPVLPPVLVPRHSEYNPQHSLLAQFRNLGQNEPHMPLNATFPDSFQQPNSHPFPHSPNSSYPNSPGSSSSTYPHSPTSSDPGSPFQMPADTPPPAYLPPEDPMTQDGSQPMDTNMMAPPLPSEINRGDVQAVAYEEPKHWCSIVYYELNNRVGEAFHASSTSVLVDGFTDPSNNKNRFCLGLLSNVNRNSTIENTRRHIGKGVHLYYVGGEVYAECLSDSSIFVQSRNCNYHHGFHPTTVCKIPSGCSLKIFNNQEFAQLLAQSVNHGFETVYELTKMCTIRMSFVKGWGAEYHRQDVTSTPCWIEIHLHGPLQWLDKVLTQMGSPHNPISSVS
UniProt Q99717: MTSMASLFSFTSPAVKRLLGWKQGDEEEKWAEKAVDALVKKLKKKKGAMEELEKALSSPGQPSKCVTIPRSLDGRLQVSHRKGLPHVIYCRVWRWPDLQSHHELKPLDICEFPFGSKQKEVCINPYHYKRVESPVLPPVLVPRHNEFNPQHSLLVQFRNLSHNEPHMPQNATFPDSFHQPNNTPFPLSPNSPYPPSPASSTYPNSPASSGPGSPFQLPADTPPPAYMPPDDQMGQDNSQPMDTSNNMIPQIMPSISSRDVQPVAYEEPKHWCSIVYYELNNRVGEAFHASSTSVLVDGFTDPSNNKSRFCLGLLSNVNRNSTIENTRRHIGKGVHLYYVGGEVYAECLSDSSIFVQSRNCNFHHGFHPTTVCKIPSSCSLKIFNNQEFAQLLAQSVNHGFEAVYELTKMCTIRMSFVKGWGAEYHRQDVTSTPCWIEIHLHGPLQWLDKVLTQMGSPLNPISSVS

Target: SMAD4 (human (endogenous in HUVEC)) (UniProt Q13485)
Assay: co-IP; SMAD4 complexes isolated with the Pierce Co-Immunoprecipitation Kit from HUVEC-FUCCI sorted into early G1 or late G1 and treated with control, TGF-β1 (1 ng/mL) or BMP4 (5 ng/mL) for 2 h; Western blot for SMAD proteins

Substance	binding
SMAD1 (from UniProt Q15797 1-465)	binds
SMAD5 (from UniProt Q99717 1-465)	binds
